Experimental data as given in paper PMC5068538.
No constants are given. Whether binding was seen depends on the method and setting. For some of these results: Binding seen in cells or lysates may run through a third protein. Some binding calls cover weakened binding; strength is not graded here. For some of these results: Where a sequence is shown, tags or fusion partners need not be part of it. Blank lines part the entries; values can stand above or below the molecule they belong to.

The chains behind the UniProt entries cited, without tags or fusion partners. Where a name states a change or a piece, a line headed by the entry shows the natural chain unless it says otherwise.
UniProt Q12824: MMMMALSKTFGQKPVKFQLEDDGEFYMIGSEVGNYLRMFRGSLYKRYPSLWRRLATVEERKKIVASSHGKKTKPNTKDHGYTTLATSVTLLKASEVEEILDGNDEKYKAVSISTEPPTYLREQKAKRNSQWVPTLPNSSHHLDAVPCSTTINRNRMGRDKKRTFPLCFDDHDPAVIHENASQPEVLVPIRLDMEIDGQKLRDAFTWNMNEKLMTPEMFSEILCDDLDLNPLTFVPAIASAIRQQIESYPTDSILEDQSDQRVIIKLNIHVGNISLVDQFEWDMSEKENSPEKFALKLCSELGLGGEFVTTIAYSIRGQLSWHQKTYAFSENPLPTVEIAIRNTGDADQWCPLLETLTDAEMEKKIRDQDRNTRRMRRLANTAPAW

Key:
GST-SAP18 = target: T1, GST-SAP18 (UniProt O00422); experiment: pull-down; 6His-tagged INI1 or SID-INI1 mutants expressed in bacteria, GST-SAP18 immobilized onto glutathione agarose beads; bound protein detected by immunoblot with anti-6His antibody
T1 sequence: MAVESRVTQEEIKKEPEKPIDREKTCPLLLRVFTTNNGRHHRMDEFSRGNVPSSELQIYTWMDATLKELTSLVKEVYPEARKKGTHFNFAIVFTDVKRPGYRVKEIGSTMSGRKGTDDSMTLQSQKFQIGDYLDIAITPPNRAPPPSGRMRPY

[1] = target: LexA-SID-INI1-D (clone D6, N152S R242I) (human) (UniProt Q12824); experiment: two-hybrid; yeast; LexA DNA-binding domain fusions of INI1 or SID-INI1 mutants against GAL4 activation domain fusions; LacZ reporter, X-Gal assay, strength by the time of appearance of the blue color
[2] = target: LexA-INI1 fusion protein (wild-type INI1/hSNF5) (human) (UniProt Q12824); experiment: as above

binding (GST-SAP18): binds
Molecule: 6His-INI1 (wild type) (from UniProt Q12824 1-385)

Molecule: GAL4 activation domain fused to INI1 (GAL4AC-INI1) (from UniProt Q12824 1-385)
binding [1]: binds | binding [2]: binds

binding [2]: binds
B1: GAL4 activation domain fused to SAP18 (GAL4AC-SAP18) (protein, UniProt O00422 1-153)
chain: T1 sequence
